Data source: PubChem BioAssay AID504774 (Drosophila RNAi Screening Center, 2011)

- Aim: 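Genes required for cells to withstand methyl methanesulphonate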 (primary screen)
- System: Drosophila Kc167 cells
- Reagents: long dsRNA against Drosophila genes, about 0.25 µg dsRNA per well
- Time to read-out: about 6 days: 3 days knock-down, then 3 days with or without MMS
- Challenge: methyl methanesulphonate 0.004% (w/v) for 3 days after knock-down
- Detection: 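Viability in wells given MMS, read as ATP luminescence, normalised by quantiles plate by plate and averaged across replicates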
- Reading the numbers: mean viability with MMS and viability with MMS: higher = more surviving cells after MMS
The screen tested about 23,000 reagents; shown is an unselected part of those that have a named target and a result. 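Values are quantile-normalised luminescence on an arbitrary scale; higher means more cells surviving MMS.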 Names joined by + are all predicted targets of the reagent. No sequences are given here.

Target gene	dsRNA	mean viability with MMS	viability with MMS, replicate 1	viability with MMS, replicate 2
Gr28a (Gustatory receptor 28a)	DRSC02290	3.48e6	3.97e6	3.93e6
EndoG (Endonuclease G)	DRSC07292	3.77e6	4.22e6	4.31e6
EndoG (Endonuclease G)	DRSC22746	3.50e6	3.89e6	4.07e6
CG34289	DRSC13625	3.43e6	3.90e6	3.87e6
slf (schlaff)	DRSC00583	3.53e6	4.02e6	3.97e6
CG8097	DRSC20079	3.55e6	4.03e6	4.03e6
CG30094	DRSC22268	3.52e6	4.00e6	3.98e6
CG5746	DRSC15868	3.51e6	4.05e6	3.93e6
fun (retired record)	DRSC12300	3.70e6	4.18e6	4.22e6
CG15097	DRSC06526	3.55e6	4.08e6	3.97e6
CG11373	DRSC12170	3.62e6	4.15e6	4.05e6
CG13716	DRSC08325	3.70e6	3.53e6	3.53e6
CG13716	DRSC22815	3.49e6	3.99e6	3.96e6
babo (baboon)	DRSC07581	3.56e6	4.02e6	4.04e6
CG14803	DRSC18556	3.51e6	3.98e6	3.99e6
Clc (Clathrin light chain)	DRSC11116	3.64e6	4.12e6	4.10e6
CG7548	DRSC10874	3.70e6	4.25e6	4.14e6
CCAP-R (Crustacean cardioactive peptide receptor)	DRSC14891	3.58e6	4.04e6	4.06e6
CCAP-R (Crustacean cardioactive peptide receptor)	DRSC15967	3.64e6	4.12e6	4.14e6
Ice1 (Interacts with the C terminus of ELL 1)	DRSC04191	3.05e6	3.53e6	3.49e6
gig (gigas)	DRSC11351	3.83e6	4.40e6	4.19e6
sage (salivary gland-expressed bHLH)	DRSC14580	1.73e6	3.99e6	3.81e6
ATPsynD (ATP synthase, subunit D)	DRSC14093	3.52e6	4.03e6	3.95e6
RhoGAP68F (Rho GTPase activating protein at 68F)	DRSC10717	3.43e6	3.86e6	3.93e6
CG5273	DRSC18612	3.61e6	4.18e6	4.01e6
CG31075	DRSC16016	3.63e6	4.16e6	4.07e6
CG16970 (retired record)	DRSC01310	3.53e6	4.01e6	4.00e6
CG16970 (retired record)	DRSC02549	3.59e6	4.14e6	4.00e6
CG15330	DRSC18014	3.63e6	4.09e6	4.15e6
Elba2 (Early boundary activity 2)	DRSC00731	3.57e6	4.02e6	4.09e6
CG17237	DRSC00491	3.71e6	4.11e6	4.35e6
Prp31 (Pre-mRNA processing factor 31)	DRSC10735	3.44e6	3.93e6	3.85e6
CG16739	DRSC06621	3.29e6	3.66e6	3.73e6
ItgaPS5 (Integrin alphaPS5 subunit)	DRSC04501	3.72e6	4.26e6	4.15e6
gcm2	DRSC03538	3.65e6	3.95e6	4.32e6
CG34176	DRSC00435	3.56e6	3.94e6	4.12e6
uif (uninflatable)	DRSC00963	3.34e6	3.77e6	3.85e6
uif (uninflatable)	DRSC03427	3.64e6	4.12e6	4.09e6
CG14764	DRSC05072	3.63e6	4.13e6	4.12e6
CG14764	DRSC06498	3.61e6	4.06e6	4.14e6
CG14764	DRSC06844	3.74e6	4.27e6	4.06e6
mRpL4 (mitochondrial ribosomal protein L4)	DRSC03562	3.56e6	4.21e6	3.88e6
CG13160	DRSC06284	3.79e6	4.01e6	4.11e6
CG1688	DRSC05934	3.47e6	4.00e6	3.85e6
CG1688	DRSC23207	3.50e6	4.02e6	3.95e6
Phax (Phosphorylated adaptor for RNA export)	DRSC07066	3.54e6	4.06e6	3.96e6
CG4467	DRSC15585	3.56e6	4.08e6	4.00e6
CG9372	DRSC11068	3.74e6	4.24e6	4.13e6
CDK2AP1 (CDK2-associated protein 1)	DRSC19800	3.37e6	4.01e6	3.98e6
Dnaaf3 (Dynein axonemal assembly factor 3)	DRSC06684	3.69e6	4.12e6	4.21e6
rux (roughex)	DRSC18829	3.79e6	4.10e6	4.55e6
CG32834	DRSC21929	3.53e6	4.06e6	3.94e6
CG10874	DRSC00297	3.61e6	3.90e6	4.32e6
Ppr-Y	DRSC20892	2.35e6	3.92e6	3.97e6
Obp50a (Odorant-binding protein 50a)	DRSC22152	3.48e6	3.97e6	3.94e6
CG12056	DRSC17796	3.62e6	3.88e6	4.23e6
CG8664	DRSC20116	3.37e6	3.82e6	3.75e6
CG12659	DRSC17862	3.56e6	4.15e6	3.94e6
CG6425	DRSC16038	3.64e6	4.17e6	4.05e6
CG31323	DRSC14901	3.31e6	3.72e6	3.72e6
CG5906	DRSC10557	3.44e6	3.97e6	3.82e6
CG13126	DRSC02222	3.41e6	3.78e6	3.93e6
CG32651	DRSC18941	3.51e6	3.96e6	4.00e6
CG13154	DRSC06279	3.41e6	3.65e6	3.90e6
Hsf (Heat shock factor)	DRSC07443	3.23e6	3.75e6	3.72e6
l(2)05287 (lethal (2) 05287)	DRSC02151	3.25e6	3.57e6	3.62e6
l(2)05287 (lethal (2) 05287)	DRSC02152	3.38e6	3.82e6	3.79e6
Sc2	DRSC08162	3.56e6	4.06e6	4.02e6
vis + achi	DRSC07277	3.62e6	4.04e6	4.17e6
NimB2 (Nimrod B2)	DRSC22645	3.46e6	3.96e6	3.94e6
Rab30	DRSC03137	3.57e6	3.95e6	4.13e6
slgA (sluggish A)	DRSC20586	3.55e6	4.00e6	4.07e6
ras (raspberry)	DRSC18825	3.47e6	4.23e6	3.60e6
Mkp3 (Mitogen-activated protein kinase phosphatase 3)	DRSC10084	3.51e6	3.98e6	3.96e6
Mkp3 (Mitogen-activated protein kinase phosphatase 3)	DRSC10085	3.52e6	3.98e6	3.99e6
Ugt36E1 (UDP-glycosyltransferase family 36 member E1)	DRSC02599	3.43e6	4.01e6	3.71e6
zfh1 (Zn finger homeodomain 1)	DRSC14014	3.54e6	3.96e6	4.07e6
zfh1 (Zn finger homeodomain 1)	DRSC17098	3.34e6	3.78e6	3.82e6
CG7290	DRSC10800	3.59e6	4.14e6	3.98e6
Fbxo42 (F-box protein 42)	DRSC04529	3.56e6	4.19e6	3.98e6
shd (shade)	DRSC11129	3.49e6	4.06e6	3.84e6
Cpr67Fa2 (Cuticular protein 67Fa2)	DRSC10315	3.71e6	4.15e6	4.19e6
CG6664	DRSC10690	3.70e6	4.10e6	4.23e6
papi	DRSC00693	3.34e6	3.69e6	3.75e6
eEF1delta (eukaryotic translation elongation factor 1 delta)	DRSC02790	3.64e6	4.38e6	3.90e6
CG17163	DRSC20901	3.47e6	3.86e6	4.03e6
Tina-1 (Troponin C-akin-1)	DRSC04317	3.53e6	3.95e6	4.05e6

Entries listed so far whose target name starts with Z or z:
Target gene	dsRNA	mean viability with MMS	viability with MMS, replicate 1	viability with MMS, replicate 2
zfh1 (Zn finger homeodomain 1)	DRSC14014	3.54e6	3.96e6	4.07e6
zfh1 (Zn finger homeodomain 1)	DRSC17098	3.34e6	3.78e6	3.82e6
